In US20180320175:
For at least one entry, the source does not settle the construct or the ends of the probe. Where cells or extracts were used, other partners may take part.

By UniProt entry, the sequences of proteins in these tests, tags left out.
UniProt O95931, whole entry: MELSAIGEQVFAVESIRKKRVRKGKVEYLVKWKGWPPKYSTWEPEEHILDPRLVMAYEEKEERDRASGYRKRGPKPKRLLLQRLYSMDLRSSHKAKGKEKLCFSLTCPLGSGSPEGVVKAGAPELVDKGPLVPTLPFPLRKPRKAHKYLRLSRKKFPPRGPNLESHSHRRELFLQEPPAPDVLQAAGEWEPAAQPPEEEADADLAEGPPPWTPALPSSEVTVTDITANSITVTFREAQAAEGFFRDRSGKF

Molecular target: CBX7 (Chromobox Homolog 7, PRC1 subunit) (UniProt O95931)
Experiment: binding assay
Settings: denaturing CLIP-seq in HEK293; UV 254 nm; 8 M urea wash; region is peak plus 500 nt envelope; protein in cells

Sequence | binding result
AGCACUGCUUGCCCCUCCUCUCGUCUGGUCUGGUCUGGUCUGGUCUGGUCUGGUCUGAGAGCUUCUUUGGGGCUCUGACAGGUAUACAGGCUCUCAUCUGCUCUACAGCUCUCUUGUAGUACAUUCCUCUCUGUUCCAUUAGUCAACAUGUUCUUGCCUACUUCCAGCAUCUAGAAAUUUGCUGAGUGUAUCUUAUCCGUUCAGAGGUCCUCUCCUGCUAUUGCCUCUGUUAGAAAUUUCUUCCCUUUCAUAUGUCUGUACUUCGGUUUCUUUGAGGUUUGAAGGGUCAAGUGGCAAUUACAUGUAGGCAGUUGGCCAUCCUCUGGUGAAGGCUUUAAAGCCCAGGAAUAACAAGAUCCAUUAUGUCUAAAACUAGCAAAAACCCUACCUGUCACAUGGUGAACUGAAUUAGAGGUGAUGGGGACAGAAGCCAGAUUGGAGUGAGUGGAAGGUGAGGGAGUGGAGAUUGGGUAUAGACAACUCUCUUUAAGAAGUUUUGUUGUGAUGGUGACCAGAAAAAUAGGAGUGGGGUAGAGGGGGAUGAGGGUGUUUUUCACGUGGGUGAAUAUGAGAGCAUGUUUACAUCCUUCUGGGAAUGGCCCAGGAGAGAGGGGAGCGUGAGAAGGAGGAAAUGGGGACCUGGAGGAGCAGACUCCUUGUGUGGAGGGGGGAAGCGGCAUCUAGAGCUGUUGCAGGAGGUGGGCUUUGAGUAAAUGCUUCCUCUUUGGUAAAGACGGGGAACGGGAACGGUAGAAGUUGCACGGACCCUUUGUUAAAGCUCAGAAGCUGAGCGAGAAUUAGAGCUUAAGUUUAUGGAGUAGUCAGAAUAAAGUACCCCUAACUGUAUUCUUGCACAGUGCAGGAAGCCAGGGGUCUGAAAUCAAGAUGUUGCAGGGCUCCAUUCCCCCCAGAGCCUCUAGCAUGGAUCCUUCCUUGCCUCUUCCAGCUUUUGGUGGCUGCCUGGCAGUCCUAGACUUUCCUUGGCUUGCAGUUGCAUUGCUCCAUUCUCUGCUUGUGUCUUCACAUGGCCUUCUCUGUGUCCCCGUAUUCUUCUCUGGAUGCUUGUCACUGUAUUAGGCCCACCCUAAAUCCAGGAUGAUCUCAUAUCAAGAUCCUUCACUUAAUUACAGAA [MECP2 RNA PRC1-binding region 2] | binds
AGGGAGCAGCCCCAAAUUGUCACCUGCUUCUCUGCCCAGCUUUUCAUUGCUGUGACAGUGAUGGCGAAAGAGGGUAAUAACCAGACACAAACUGCCAAGUUGGGUGGAGAAAGGAGUUUCUUUAGCUGACAGAAUCUCUGAAUUUUAAAUCACUUAGUAAGCGGCUCAAGCCCAGGAGGGAGCAGAGGGAUACGAGCGGAGUCCCCUGCGCGGGACCAUCUGGAAUUGGUUUAGCCCAAGUGGAGCCUGACAGCCAGAACUCUGUGUCCCCCGUCUAACCACAGCUCCUUUUCCAGAGCAUUCCAGUCAGGCUCUCUGGGCUGACUGGGCCAGGGGAGGUUACAGGUACCAGUUCUUUAAGAAGAUCUUUGGGCAUAUACAUUUUUAGCCUGUGUCAUUGCCCCAAAUGGAUUCCUGUUUCAAGUUCACACCUGCAGAUUCUAGGACCUGUGUCCUAGACUUCAGGGAGUCAGCUGUUUCUAGAGUUCCUACCAUGGAGUGGGUCUGGAGGACCUGCCCGGUGGGGGGGCAGAGCCCUGCUCCCUCCGGGUCUUCCUACUCUUCUCUCUGCUCUGACGGGAUUUGUUGAUUCUCUCCAUUUUGGUGUCUUUCUCUUUUAGAUAUUGUAUCAAUCUUUAGAAAAGGCAUAGUCUACUUGUUAUAAAUCGUUAGGAUACUGCCUCCCCCAGGGUCUAAAAUUACAUAUUAGAGGGGAAAAGCUGAACACUGAAGUCAGUUCUCAACAAUUUAGAAGGAAAACCUAGAAAACAUUUGGCAGAAAAUUACAUUUCGAUGUUUUUGAAUGAAUACGAGCAAGCUUUUACAACAGUGCUGAUCUAAAAAUACUUAGCACUUGGCCUGAGAUGCCUGGUGAGCAUUACAGGCAAGGGGAAUCUGGAGGUAGCCGACCUGAGGACAUGGCUUCUGAACCUGUCUUUUGGGAGUGGUAUGGAAGGUGGAGCGUUCACCAGUGACCUGGAAGGCCCAGCACCACCCUCCUUCCCACUCUUCUCAUCUUGACAGAGCCUGCCCCAGCGCUGACGUGUCAGGAAAACACCCAGGGAACUAGGAAGGCACUUCUGCCUGAGGGGCAGCCUGCCUUGCCCACUCCUGCUCUGCUCGCCUCGGAUCAGCUGAGCCUUCUGAGCUGGCCUCUCACU [MECP2 RNA PRC1-binding region 1] | binds
